Measurements published in paper PMC6063507.
Results are given in words; binding and its absence hold for the method and conditions named. Binding seen in cells or lysates may run through a third protein. Some binding calls cover weakened binding; strength is not graded here.

The chains behind the UniProt entries cited, without tags or fusion partners. Where a name states a change or a piece, a line headed by the entry shows the natural chain unless it says otherwise. Residues count along the entry.
UniProt Q9NPY3, residues 22-652: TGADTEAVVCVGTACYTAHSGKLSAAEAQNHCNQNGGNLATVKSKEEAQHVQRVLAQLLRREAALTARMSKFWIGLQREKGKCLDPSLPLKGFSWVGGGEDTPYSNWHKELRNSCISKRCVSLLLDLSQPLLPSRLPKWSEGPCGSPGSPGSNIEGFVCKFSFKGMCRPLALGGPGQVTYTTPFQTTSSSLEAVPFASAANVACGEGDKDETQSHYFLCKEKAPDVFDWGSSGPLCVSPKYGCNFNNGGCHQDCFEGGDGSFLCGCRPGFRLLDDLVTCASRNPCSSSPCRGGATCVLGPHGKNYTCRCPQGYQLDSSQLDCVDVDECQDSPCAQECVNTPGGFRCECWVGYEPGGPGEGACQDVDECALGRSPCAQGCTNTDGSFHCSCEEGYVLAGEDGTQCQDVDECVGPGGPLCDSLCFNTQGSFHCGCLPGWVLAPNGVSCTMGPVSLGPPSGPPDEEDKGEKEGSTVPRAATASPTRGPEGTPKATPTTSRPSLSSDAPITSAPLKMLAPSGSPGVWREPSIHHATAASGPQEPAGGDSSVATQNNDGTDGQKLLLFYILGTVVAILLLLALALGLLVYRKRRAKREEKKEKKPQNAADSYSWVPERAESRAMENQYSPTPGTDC
UniProt P05556: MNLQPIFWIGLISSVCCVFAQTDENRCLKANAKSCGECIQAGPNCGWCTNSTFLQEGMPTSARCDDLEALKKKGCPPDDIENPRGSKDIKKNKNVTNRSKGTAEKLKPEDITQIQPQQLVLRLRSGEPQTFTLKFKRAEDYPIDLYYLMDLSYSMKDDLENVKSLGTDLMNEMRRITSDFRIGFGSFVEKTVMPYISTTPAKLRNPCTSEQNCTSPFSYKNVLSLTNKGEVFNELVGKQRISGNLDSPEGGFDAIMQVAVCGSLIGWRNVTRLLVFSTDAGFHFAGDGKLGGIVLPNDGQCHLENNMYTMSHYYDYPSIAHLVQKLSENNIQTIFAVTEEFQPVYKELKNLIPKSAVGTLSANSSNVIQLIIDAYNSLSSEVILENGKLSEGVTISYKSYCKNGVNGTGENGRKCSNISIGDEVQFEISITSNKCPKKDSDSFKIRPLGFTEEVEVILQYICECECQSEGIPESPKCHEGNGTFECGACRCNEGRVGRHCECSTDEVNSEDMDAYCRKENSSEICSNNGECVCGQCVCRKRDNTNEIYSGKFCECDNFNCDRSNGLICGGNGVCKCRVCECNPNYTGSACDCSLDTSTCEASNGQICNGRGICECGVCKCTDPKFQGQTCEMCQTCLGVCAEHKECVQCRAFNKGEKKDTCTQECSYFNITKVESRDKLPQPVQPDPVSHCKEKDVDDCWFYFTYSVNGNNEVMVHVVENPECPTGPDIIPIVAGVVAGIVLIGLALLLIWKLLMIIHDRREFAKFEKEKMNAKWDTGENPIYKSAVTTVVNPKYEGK

Target: CD93 (human (endogenous in HDMECs and HDBECs)) (UniProt Q9NPY3)
Test: proximity ligation; in situ PLA (Duolink II) on cultured HDBECs with pairs of primary antibodies; single primary antibodies and probes alone as negative controls; signals per cell counted

For “active β1 integrin (from UniProt P05556 21-798) (receptor)”, the binding was “binds”.
